{"sequences": {"note": "Protein sequences, listed by entry. Tags and fused reporters are not part of them.", "UniProt P61073, whole entry": "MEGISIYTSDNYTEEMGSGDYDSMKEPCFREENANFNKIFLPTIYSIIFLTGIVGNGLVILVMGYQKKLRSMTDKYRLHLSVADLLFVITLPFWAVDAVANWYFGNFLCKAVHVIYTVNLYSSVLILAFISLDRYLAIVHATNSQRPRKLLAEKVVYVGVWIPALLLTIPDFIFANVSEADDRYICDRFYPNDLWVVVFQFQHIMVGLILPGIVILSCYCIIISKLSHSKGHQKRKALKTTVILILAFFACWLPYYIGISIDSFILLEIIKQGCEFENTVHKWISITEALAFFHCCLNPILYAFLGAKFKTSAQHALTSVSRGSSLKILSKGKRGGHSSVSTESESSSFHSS"}, "source": "patent US20250136617A1", "about": "(The Regents of the University of Colorado, A Body Corporate, priority 2022, published 2025)", "key": {"[1]": {"system": "CEM-CCRF human lymphoblast cells", "assay": "Transwell migration assay in CEM-CCRF lymphoblasts", "type": "cell-based", "protocol": "Thus, to confirm CXCR4 functional activity, UCUF-728 was evaluated in a 96 w transwell migration assay in CEM human lymphoblast cells.\nCEM-CCRF (ATCC CCL-119) were suspended in RPMI 1640 (Corning; 10-040-CV) at 5.0×10^5 cells/mL and allowed to incubate in cell culture incubator at 37° C. with 5% CO2 for one hour. […] Plates were reassembled and placed in a cell culture incubator at 37° C. with 5% CO2 for three hours. After incubation, Multi-Screen plate was disassembled and 100 μl of solution was collected from compound receiver tray and transferred to 96 well luminescent plate (Thermo Scientific; 265302) and an equal volume of ATPLite Istep luminescence reagent (Perkin Elmer, Waltham, MA; 6016731) was added to each well. Luminescence was measured using the CLARIOstar Plus (BMG LABTECH Inc., Cary, NC)."}, "[2]": {"target": "CXCR4 (Homo sapiens, UniProt P61073)", "assay": "β-arrestin recruitment, 384-well, Tango CXCR4-bla U2OS cells, normalized to SDF-1α", "type": "cell-based", "parameters": "host or cells: U2OS", "protocol": "Tango™ CXCR4-bla U2OS Cells (Invitrogen; K1779) were used for (β-arrestin recruitment assays and maintained as a monolayer culture in McCoy's 5a (Corning; 10-050-CV) supplemented with 10% dialyzed Fetal Bovine Serum (Gibco; 26400-044), 0.1 mM MEM Non-essential amino acids solution, 25 mM HEPES solution (Corning; 25-060-CI), 1 mM Sodium Pyruvate (Gibco; 11360-070), 200 μg/mL Zeocin selection reagent (Gibco; R25001), 50 μg/mL Hygromycin B (Gibco, 10687010), and 100 μg/mL Geneticin (G418 Sulfate) (Gibco, 10131035). U2OS cells were subcultured twice weekly by 0.05% Trypsin-EDTA treatment (Corning; 25-051-CI) and passaged to continue exponential growth phase for cell signaling assays. All cell cultures were maintained in cell culture incubators at 37° C. with 5% CO2. CHO-K1 CXCR4 cells (DiscoverX, Fremont, CA, USA) were used for cAMP inhibition assays and maintained as a monolayer culture in DMEM/F12 (Corning; 10-091-CV) supplemented with 10% Fetal Bovine Serum (Corning; 35-011-CV) and 100IU penicillin, […] streptomycin sulfate (Corning; 30-002-CI) and […] G418 (Gibco; 101310350. Cells were subculture 2 times weekly by o.o5% Trypsin-EDTA treatment (Corning; 25-051-CI) and passaged to continue exponential growth phase for cell signaling assays. All cell cultures were maintained in cell culture incubators at 37° C. with 5% CO2.CEM-CCRF cells (ATCC CCL-119) were used in both the migration and calcium flux assays and were cultured in growth media consisting of RPMI 1640 (Corning; 10-040-CV) supplemented with 10% Fetal Bovine Serum (Corning; 35-011-CV), and 100 IU penicillin, […] streptomycin sulfate (Corning; 30-002-CI). […]\nTango™ CXCR4-bla U2OS Cells were resuspended in assay media consisting of DMEM (Corning; Corning, NY) supplemented with 1% dialyzed Fetal bovine serum, 0.1 mM MEM Non-essential amino acids solution, 25 mM HEPES solution (Corning; Corning, NY), 1 mM Sodium Pyruvate and 100 IU penicillin, […] streptomycin sulfate (Corning; Corning, NY) at a density of 3.0×10^5 cells/ml. […] Assay plate was covered and incubated in a dark place for two hours and Fluorescence Intensity was measured using the BMG LABTECH CLARIOstar Plus (BMG LABTECH Inc., Cary, NC) according to the LiveBlazer FRET B/G Loading Kit excitation and emission measurement guidelines.\nResults are expressed as mean±SD for 3 to 5 independent experiments. Statistically significant differences in gene expression between two groups were assessed by Student's T-test, ANOVA with an appropriate post hoc test was be used for multiple comparisons. […] All concentration response curves were analyzed to determine EC50 and Emax using the following equation: […]"}}, "note": "Some results were stated once for a whole list of compounds, not compound by compound.", "data": [{"smiles": "CCOc1ccccc1-c1nnc2n1N=C(c1ccc(N3CCCC3)cc1)CS2", "note": "[compound 24]", "values": [{"measurement": "EC50", "setting": "[1]", "result": "< 5", "unit": "µM"}, {"measurement": "EC50", "setting": "[2]", "result": "< 5", "unit": "µM"}, {"measurement": "TANGO β-arrestin Emax (%)", "setting": "[2]", "result": "A A (A ≥ 70)"}]}, {"smiles": "CCOc1ccccc1-c1nnc2n1N=C(c1ccc(N3CCCC3)cc1)CS2", "note": "[Entry 23]", "values": [{"measurement": "EC50", "setting": "[2]", "result": "< 5", "unit": "µM"}, {"measurement": "TANGO β-arrestin Emax (%)", "setting": "[2]", "result": "A A (A ≥ 70)"}]}]}
